# From US9284369B2, “Inhibition of angiogenesis” (Genentech, Inc., priority 2007, dated 2016)
# Some results were stated once for a whole list of compounds, not compound by compound.
# Tested on: Bv8 expression
# Assay: Regulation of Bv8 gene expression in cultured mouse BMMNCs (Taqman)
# Format: cell-based
# Conditions: 10 ng/ml, 4 hr
# Protocol: RNA from tissues or cells was prepared using the RNeasy Mini Kit® (Qiagen). 50 ng total RNA per reaction was used for the real time PCR (Taqman™) analysis. For mouse/human Bv8 and EG-VEGF/Bv8 receptor 1 (PKR-1/EG-VEGFR1, R-1), testis RNA (BD Biosciences) served as control. For mouse/human EG-VEGF/Bv8 receptor 2 (PKR-2/EG-VEGFR2, R2), hypothalamus or whole brain (BD Biosciences) served as the control tissues. Reactions were run on 9600 Emulation mode of 7500 Real […] time PCR system (Applied Biosystems) and the absolute quantification with standard curve was used with Sequence Detection System (SDS) software. The expression level of each gene was further quantified against the house-keeping gene RPL19 in the same sample. To confirm the expression of VEGFR-1, VEGFR-2, EG-VEGF/Bv8 R1 and EG-VEGF/Bv8 R2 in the tumor-associated endothelial cells, standard RT-PCR was conducted using the Titan One Tube™ RT-PCR system (Roche) and the end products were checked on 2% agarose gel (Invitrogen) for the correct size. The sequence of Taqman™ primers are as follows: […]
# Recombinant mouse MCP-1, MIP-1α, MIP-1β, MIP-2, bFGF, VEGF, GM-CSF, G-CSF, SDF-1 and TNFα were purchased from R&D Systems (Minneapolis, Minn.). […] Bv8 expression was assessed by Taqman™ with RPL19 (Ribosomal Protein L19) as the internal control gene. […]
substance,measurement,value
IL-6: cytokine interleukin-6,Bv8 up-regulation in purified CD11b+Gr1+ cells,2-3 fold
